Values of other authors in patent US20260000657A1, “ANTI-ANGIOGENIC THERAPY AS TREATMENT FOR BENIGN UTERINE DISORDERS” (STICHTING AMSTERDAM UMC, priority 2022, published 2026).

Tested on: tamoxifen-induced adenomyosis murine model
Settings: treatment started at day 6; cited from earlier work

Structure (SMILES): COc1ccc2cc([C@H](C)C(=O)O)ccc2c1 [naproxen]
- Vessel density: significant reduction in vessel density
